Survivor count and T/C data for 25 compounds are collected here from PubChem BioAssay AID330 (DTP/NCI, 2004).

The structures appear in SMILES notation. The list is a part of this screen's results and no random one: it gathers tests that were run many times, whatever their T/C, doses with no T/C, and many T/C values between a quarter and a half above the control. Further doses and runs are listed elsewhere. T/C gives the treated animals as a percentage of the vehicle group. Some entries give survivors of the animals treated and no T/C: the source files T/C as zero there, which appears to mark a toxic dose or a test without result, not a measured value. Some doses without a T/C left all or most animals alive at the check, yet need not have been tolerated: the source hardly ever lists a survival T/C far under the control, and the zero likely stands for such cases as well. Counts of survivors are from the toxicity check (mostly the fifth day) where no day follows; animals may have died later. Schedule codes are those of the source, taken here to give the interval after Q, in days (D) or hours (H), and the number of doses after X. Some structures stand for samples that the source files as different forms (salt, stereo form or complex); doses refer to the form tested. Some entries hold several experiments; the results are listed from low to high. For survival time, this PubChem deposit counts one and a half times the control or more as active, and values a quarter to a half above the control carry no call in these data; other NCI protocols may use other cut-offs. Some T/C values carry the count of animals alive at the toxicity check (mostly the fifth day); where none is given, no animal had died by that day.

In this experiment the test system is P388 leukemia ip, CD2F1 mice, survival T/C. In words: NCI In Vivo Anticancer Drug Screen. Data for tumor model P388 Leukemia (intraperitoneal) in CD2F1 (CDF1) mice. As to conditions: T/C endpoint: median survival time, higher T/C = longer survival.
Setting [1] is: dose: 240.0 mg/kg/injection, schedule: Q01DX005 (ip), vehicle: saline with Tween-80.
The mark [2] stands for this setting: dose: 200.0 mg/kg/injection, schedule: Q01DX009 (ip), vehicle: saline with Tween-80.
Where [3] appears, read: dose: 200.0 mg/kg/injection, schedule: Q01DX005 (ip), vehicle: saline with Tween-80.
Setting [4] is: dose: 100.0 mg/kg/injection, schedule: Q01DX005 (ip), vehicle: Klucel (hydroxypropylcellulose) (HPC).
The mark [5] stands for this setting: dose: 200.0 mg/kg/injection, schedule: Q01DX005 (ip), vehicle: Klucel (hydroxypropylcellulose) (HPC).
Where [6] appears, read: dose: 25.0 mg/kg/injection, schedule: Q01DX005 (ip), vehicle: Klucel (hydroxypropylcellulose) (HPC).
Where [7] appears, read: dose: 50.0 mg/kg/injection, schedule: Q01DX005 (ip), vehicle: Klucel (hydroxypropylcellulose) (HPC).
The mark [8] stands for this setting: dose: 50.0 mg/kg/injection, schedule: Q01DX009 (ip), vehicle: Klucel (hydroxypropylcellulose) (HPC).
Setting [9] is: dose: 200.0 mg/kg/injection, schedule: Q01DX009 (ip), vehicle: Klucel (hydroxypropylcellulose) (HPC).
Where [10] appears, read: dose: 400.0 mg/kg/injection, schedule: Q01DX009 (ip), vehicle: saline with Tween-80.

For `O=C(O)/C(Cl)=C(\Cl)C(=O)Nc1ccc(Br)cc1`, the survivor count under setting [1] is 1 of 6.

On to `CS(=O)(=O)OCCN(CCOS(C)(=O)=O)c1ccc(/C=N/Nc2ncnc3nc[nH]c23)cc1`, for which the T/C by setting is: (dose: 12.5 mg/kg/injection, schedule: Q04DX003 (ip), vehicle: saline with Tween-80) 127 % of control; (dose: 25.0 mg/kg/injection, schedule: Q04DX003 (ip), vehicle: saline with Tween-80) 127 % of control; (dose: 50.0 mg/kg/injection, schedule: Q04DX003 (ip), vehicle: saline with Tween-80) 140 % of control. In addition, the survivor count under setting [2] is 6 of 6.

As to `Nc1ncnc2c1c1c(=S)nc[nH]c1n2C1OC(CO)C(O)C1O` (stereo not given), the T/C (dose: 6.25 mg/kg/injection, schedule: Q01DX009 (ip), vehicle: water) is 138 % of control and the T/C (dose: 12.5 mg/kg/injection, schedule: Q01DX009 (ip), vehicle: water) was 149 % of control.

In the case of `CC(C)OC(=O)Nc1ccc2nc(-c3cscn3)[nH]c2c1`, the T/C under setting [3] is 133 % of control.

Consider `O=[N+]([O-])c1ccc(O)c(/C=N\NS(=O)(=O)c2ccc(Cl)cc2)c1`, for which the survivor count under setting [3] is 0 of 6.

Take `S=c1nc[nH]c2c1ncn2C1CCCO1` (stereo not given): for the setting “dose: 400.0 mg/kg/injection, schedule: Q04DX003 (ip), vehicle: saline with Tween-80”, the survivor count is listed as 3 of 6.

With `COc1cc(C2c3c(oc4ccccc4c3=O)Oc3oc4ccccc4c(=O)c32)cc(OC)c1OC`, under setting [1], the survivor count is given as 6 of 6.

With `NCCc1cc2ccccc2c2ccccc12`, the survivor count by setting is: under setting [4], 0 of 6; under setting [5], 0 of 6.

For `CC(C)(C)c1cc2c3c(c1)Oc1cc(C(C)(C)C)cc4c1C3(O)c1c(cc(C(C)(C)C)cc1O4)O2`, the survivor count runs as follows: (dose: 3.12 mg/kg/injection, schedule: Q01DX005 (ip), vehicle: Klucel (hydroxypropylcellulose) (HPC)) 6 of 6; under setting [6], 4 of 6; under setting [7], 0 of 6; under setting [4], 0 of 6; under setting [5], 0 of 6. Under setting [6], the T/C is 130 % of control.

Turning to `C=C1C(=O)C[C@H]2[C@H]3CC[C@H](C(=O)O)[C@]12CC3(C)C`, the survivor count runs as follows: (dose: 63.0 mg/kg/injection, schedule: Q01DX005 (ip), vehicle: Klucel (hydroxypropylcellulose) (HPC)) 2 of 6; (dose: 126.0 mg/kg/injection, schedule: Q01DX005 (ip), vehicle: Klucel (hydroxypropylcellulose) (HPC)) 0 of 6.

With `CSc1nc2ccc(N3C(=O)C=CC3=O)cc2s1`, the survivor count is 1 of 6 under setting [8]; 2 of 6 (dose: 100.0 mg/kg/injection, schedule: Q01DX009 (ip), vehicle: Klucel (hydroxypropylcellulose) (HPC)); 0 of 6 under setting [9].

Take `CCCCCCCCCCCCCCCC(=O)N(CC#CCN(CCCN(C)C)C(=O)CCCCCCCCCCCCCCC)CCCN(C)C`: the survivor count (dose: 100.0 mg/kg/injection, schedule: Q01DX009 (ip), vehicle: other) is given as 0 of 6; the survivor count (dose: 200.0 mg/kg/injection, schedule: Q01DX009 (ip), vehicle: other) is 0 of 6; the survivor count (dose: 400.0 mg/kg/injection, schedule: Q01DX009 (ip), vehicle: other) is on record as 0 of 6.

As to `COc1cccc2c1C(=O)c1c(O)c3c(c(O)c1C2=O)CC(O)(/C(C)=N/NC(=S)c1ccccc1)CC3OC1CC(N)C(O)C(C)O1` (stereo not given), the survivor count (dose: 1.56 mg/kg/injection, schedule: Q01DX009 (ip), vehicle: other) is recorded as 3 of 4. Further, the T/C runs as follows: (dose: 1.56 mg/kg/injection, schedule: Q04DX003 (ip), vehicle: saline) 137 % of control; (dose: 3.13 mg/kg/injection, schedule: Q04DX003 (ip), vehicle: saline) 146 % of control.

As for `COc1ccc(CCN2C(=O)C(=O)N(c3cccc(Cl)c3)C2=O)cc1OC`, the survivor count under setting [8] is 5 of 6.

Turning to `CNC(=O)OCc1c(COC(=O)NC)c(-c2ccc(Cl)cc2Cl)n2c1CCC2`, the T/C is 132 % of control (dose: 12.5 mg/kg/injection, schedule: Q01DX009 (ip), vehicle: distilled water + Tween-80); 138 % of control (dose: 25.0 mg/kg/injection, schedule: Q01DX009 (ip), vehicle: distilled water + Tween-80); 148 % of control (dose: 50.0 mg/kg/injection, schedule: Q01DX009 (ip), vehicle: distilled water + Tween-80). Moreover, the survivor count (dose: 200.0 mg/kg/injection, schedule: Q01DX009 (ip), vehicle: distilled water + Tween-80) was 0 of 6.

Consider `CCCCCCCCCCCCCCCCCC(=O)O.[Co]`, for which, under setting [2], the T/C is 125 [5 of 6 alive] and 129 % of control [4 of 6 alive]. Under setting [10], the survivor count was 0 of 6 and 2 of 6.

Turning to `Clc1ccc2c(NCCC3CCCN4CCCCC34)ccnc2c1` (stereo not given), the survivor count runs as follows: under setting [4], 2 of 6; under setting [5], 0 of 6.

Consider `C=C(Br)C(=NC(C)(C)C)Nc1ccccc1Cl`, for which the T/C (dose: 50.0 mg/kg/injection, schedule: Q01DX005 (ip), vehicle: Klucel (hydroxypropylcellulose) (HPC), evaluated on day 20) was 107 and 117 % of control [5 of 6 alive]; the T/C (dose: 50.0 mg/kg/injection, schedule: Q01DX005 (ip), vehicle: Klucel (hydroxypropylcellulose) (HPC), evaluated on day 30) is 103 % of control; the T/C (dose: 100.0 mg/kg/injection, schedule: Q01DX005 (ip), vehicle: Klucel (hydroxypropylcellulose) (HPC), evaluated on day 20) is 117 % of control; the T/C (dose: 100.0 mg/kg/injection, schedule: Q01DX005 (ip), vehicle: Klucel (hydroxypropylcellulose) (HPC), evaluated on day 30) is 108 % of control [5 of 6 alive]; the T/C (dose: 200.0 mg/kg/injection, schedule: Q01DX005 (ip), vehicle: Klucel (hydroxypropylcellulose) (HPC), evaluated on day 20) was 130 % of control; the T/C (dose: 200.0 mg/kg/injection, schedule: Q01DX005 (ip), vehicle: Klucel (hydroxypropylcellulose) (HPC), evaluated on day 30) is 105 % of control. The survivor count is, setting by setting: under setting [7], 4 of 5; under setting [4], 3 of 6 and 5 of 5; under setting [5], 0 of 5, 0 of 6, 1 of 6.

On to `CCCCCCCCCCCCCCCC[N+](C)(C)Cc1ccccc1`, for which the survivor count is recorded as 0 of 6 (dose: 100.0 mg/kg/injection, schedule: Q04DX003 (ip), vehicle: saline); 0 of 6 (dose: 200.0 mg/kg/injection, schedule: Q04DX003 (ip), vehicle: saline); 0 of 6 (dose: 400.0 mg/kg/injection, schedule: Q04DX003 (ip), vehicle: saline).

`CCOC(=O)C1=C(C)N[C@H](c2ccccc2[N+](=O)[O-])N[C@H]1c1ccccc1[N+](=O)[O-]`: the survivor count was 6 of 6 under setting [4] and 6 of 6 under setting [5].

For the compound `Cc1ccc(N2C(=O)CCSC2=S)cc1Cl`, the T/C reads like this: under setting [8], 131 % of control; under setting [9], 133 % of control. Besides, the survivor count (dose: 400.0 mg/kg/injection, schedule: Q01DX009 (ip), vehicle: Klucel (hydroxypropylcellulose) (HPC)) is given as 0 of 6.

In the case of `CCCCN(CCCC)CC(O)c1c2cccc(Cl)c2cc2c(Cl)cccc12` (stereo not given), the survivor count under setting [10] is 6 of 6.

Regarding `O=[n+]1ccn([O-])c2ccccc21.[Ni].[O-][Cl+3]([O-])([O-])O`, under “dose: 50.0 mg/kg/injection, schedule: Q01DX009 (ip), vehicle: saline with Tween-80”, the T/C is 132 % of control. In addition, the survivor count was 4 of 6 (dose: 100.0 mg/kg/injection, schedule: Q01DX009 (ip), vehicle: saline with Tween-80) and 0 of 6 under setting [2].

Turning to `CC(C)(C)c1cc(C(C)(C)O)c2c(c1)C(C)(C)OS2(C)Cl` (stereo not given), the survivor count is reported as 0 of 6 (dose: 100.0 mg/kg/injection, schedule: Q04DX003 (ip), vehicle: saline with Tween-80) and 0 of 6 (dose: 200.0 mg/kg/injection, schedule: Q04DX003 (ip), vehicle: saline with Tween-80).

With `COc1ccc(-c2cn3c([nH]c(=O)c4ccccc43)c2C#N)cc1`, the survivor count (dose: 60.0 mg/kg/injection, schedule: Q01DX005 (ip), vehicle: saline with Tween-80) is listed as 6 of 6; the survivor count (dose: 120.0 mg/kg/injection, schedule: Q01DX005 (ip), vehicle: saline with Tween-80) is reported as 6 of 6; the survivor count under setting [1] is given as 6 of 6.
